Source: the supplement of paper PMC10849652
The other results are listed elsewhere or left out.

Amino acid sequences for entries named in this document (tags omitted). A change or cut given only in a name is not applied to a line headed by its entry.
UniProt Q96A37: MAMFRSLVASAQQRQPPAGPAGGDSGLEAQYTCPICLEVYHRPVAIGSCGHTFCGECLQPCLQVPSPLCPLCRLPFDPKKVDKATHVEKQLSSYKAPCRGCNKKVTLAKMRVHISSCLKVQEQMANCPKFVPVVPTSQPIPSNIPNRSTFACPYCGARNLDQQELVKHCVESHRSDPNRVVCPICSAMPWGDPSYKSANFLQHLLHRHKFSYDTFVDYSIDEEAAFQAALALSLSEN
UniProt Q13546: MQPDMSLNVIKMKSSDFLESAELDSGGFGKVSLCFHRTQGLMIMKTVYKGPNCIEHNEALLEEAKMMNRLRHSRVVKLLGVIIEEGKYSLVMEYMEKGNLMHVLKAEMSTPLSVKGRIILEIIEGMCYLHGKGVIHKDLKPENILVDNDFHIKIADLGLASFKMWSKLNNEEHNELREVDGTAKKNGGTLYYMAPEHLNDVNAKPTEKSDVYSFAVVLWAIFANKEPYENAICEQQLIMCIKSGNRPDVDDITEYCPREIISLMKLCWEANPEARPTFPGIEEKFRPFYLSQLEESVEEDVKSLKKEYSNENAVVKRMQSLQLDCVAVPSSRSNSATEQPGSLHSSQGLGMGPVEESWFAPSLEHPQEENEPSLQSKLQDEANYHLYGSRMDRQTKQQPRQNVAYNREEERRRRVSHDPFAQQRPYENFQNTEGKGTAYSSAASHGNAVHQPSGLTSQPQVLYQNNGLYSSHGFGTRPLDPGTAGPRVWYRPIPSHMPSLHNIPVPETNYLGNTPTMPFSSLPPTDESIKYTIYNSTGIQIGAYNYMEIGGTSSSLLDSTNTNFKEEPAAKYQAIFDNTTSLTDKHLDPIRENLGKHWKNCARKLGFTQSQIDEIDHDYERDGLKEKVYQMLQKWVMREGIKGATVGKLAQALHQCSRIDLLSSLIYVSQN
UniProt Q15287: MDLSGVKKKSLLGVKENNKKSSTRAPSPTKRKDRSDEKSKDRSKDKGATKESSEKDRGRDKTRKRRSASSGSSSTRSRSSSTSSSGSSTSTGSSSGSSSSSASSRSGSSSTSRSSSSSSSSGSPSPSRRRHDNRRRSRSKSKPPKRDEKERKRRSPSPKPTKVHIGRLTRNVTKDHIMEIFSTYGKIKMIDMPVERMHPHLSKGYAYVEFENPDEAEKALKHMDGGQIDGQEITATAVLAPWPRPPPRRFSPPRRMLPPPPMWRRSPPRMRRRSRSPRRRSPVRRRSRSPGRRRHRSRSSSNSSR
UniProt Q9GZN7, whole entry, looked up: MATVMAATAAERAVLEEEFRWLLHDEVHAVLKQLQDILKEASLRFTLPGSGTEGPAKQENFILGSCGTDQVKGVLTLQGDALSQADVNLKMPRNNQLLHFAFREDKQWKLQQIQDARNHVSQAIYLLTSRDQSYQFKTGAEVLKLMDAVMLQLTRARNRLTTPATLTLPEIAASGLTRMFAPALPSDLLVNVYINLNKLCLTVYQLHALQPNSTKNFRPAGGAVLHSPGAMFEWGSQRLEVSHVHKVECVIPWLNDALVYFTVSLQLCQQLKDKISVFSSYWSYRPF
UniProt Q9NTX7: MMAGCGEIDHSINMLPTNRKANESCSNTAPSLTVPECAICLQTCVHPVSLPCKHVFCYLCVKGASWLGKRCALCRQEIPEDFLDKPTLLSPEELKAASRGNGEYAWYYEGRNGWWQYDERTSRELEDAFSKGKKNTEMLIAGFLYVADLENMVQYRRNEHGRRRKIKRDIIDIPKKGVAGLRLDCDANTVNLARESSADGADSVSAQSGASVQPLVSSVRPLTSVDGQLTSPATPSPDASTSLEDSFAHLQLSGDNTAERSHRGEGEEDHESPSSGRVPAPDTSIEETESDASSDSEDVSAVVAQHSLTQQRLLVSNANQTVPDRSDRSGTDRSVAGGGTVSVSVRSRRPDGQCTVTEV
UniProt Q8IYW5, whole entry, looked up: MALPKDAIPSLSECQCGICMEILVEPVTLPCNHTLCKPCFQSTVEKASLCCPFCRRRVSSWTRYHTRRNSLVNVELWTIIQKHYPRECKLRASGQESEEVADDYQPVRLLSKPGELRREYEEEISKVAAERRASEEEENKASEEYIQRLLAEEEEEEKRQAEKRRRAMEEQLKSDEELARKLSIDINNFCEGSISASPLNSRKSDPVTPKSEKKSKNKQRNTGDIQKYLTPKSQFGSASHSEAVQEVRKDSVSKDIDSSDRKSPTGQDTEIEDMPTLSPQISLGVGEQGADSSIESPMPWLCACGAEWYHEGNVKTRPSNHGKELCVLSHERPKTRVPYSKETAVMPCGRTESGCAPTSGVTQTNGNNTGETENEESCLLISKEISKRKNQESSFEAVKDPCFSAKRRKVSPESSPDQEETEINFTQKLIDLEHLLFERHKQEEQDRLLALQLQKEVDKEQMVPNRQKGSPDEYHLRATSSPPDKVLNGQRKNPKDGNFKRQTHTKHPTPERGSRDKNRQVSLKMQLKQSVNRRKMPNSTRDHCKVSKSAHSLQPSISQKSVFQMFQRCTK
UniProt O75792: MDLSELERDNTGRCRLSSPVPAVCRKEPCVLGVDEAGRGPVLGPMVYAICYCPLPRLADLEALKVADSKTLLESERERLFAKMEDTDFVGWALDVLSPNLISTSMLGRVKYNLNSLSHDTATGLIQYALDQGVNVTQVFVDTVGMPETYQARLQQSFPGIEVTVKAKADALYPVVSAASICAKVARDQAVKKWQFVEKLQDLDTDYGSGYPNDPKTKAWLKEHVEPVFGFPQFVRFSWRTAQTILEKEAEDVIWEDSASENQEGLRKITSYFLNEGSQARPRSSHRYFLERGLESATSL
UniProt Q9BWH6: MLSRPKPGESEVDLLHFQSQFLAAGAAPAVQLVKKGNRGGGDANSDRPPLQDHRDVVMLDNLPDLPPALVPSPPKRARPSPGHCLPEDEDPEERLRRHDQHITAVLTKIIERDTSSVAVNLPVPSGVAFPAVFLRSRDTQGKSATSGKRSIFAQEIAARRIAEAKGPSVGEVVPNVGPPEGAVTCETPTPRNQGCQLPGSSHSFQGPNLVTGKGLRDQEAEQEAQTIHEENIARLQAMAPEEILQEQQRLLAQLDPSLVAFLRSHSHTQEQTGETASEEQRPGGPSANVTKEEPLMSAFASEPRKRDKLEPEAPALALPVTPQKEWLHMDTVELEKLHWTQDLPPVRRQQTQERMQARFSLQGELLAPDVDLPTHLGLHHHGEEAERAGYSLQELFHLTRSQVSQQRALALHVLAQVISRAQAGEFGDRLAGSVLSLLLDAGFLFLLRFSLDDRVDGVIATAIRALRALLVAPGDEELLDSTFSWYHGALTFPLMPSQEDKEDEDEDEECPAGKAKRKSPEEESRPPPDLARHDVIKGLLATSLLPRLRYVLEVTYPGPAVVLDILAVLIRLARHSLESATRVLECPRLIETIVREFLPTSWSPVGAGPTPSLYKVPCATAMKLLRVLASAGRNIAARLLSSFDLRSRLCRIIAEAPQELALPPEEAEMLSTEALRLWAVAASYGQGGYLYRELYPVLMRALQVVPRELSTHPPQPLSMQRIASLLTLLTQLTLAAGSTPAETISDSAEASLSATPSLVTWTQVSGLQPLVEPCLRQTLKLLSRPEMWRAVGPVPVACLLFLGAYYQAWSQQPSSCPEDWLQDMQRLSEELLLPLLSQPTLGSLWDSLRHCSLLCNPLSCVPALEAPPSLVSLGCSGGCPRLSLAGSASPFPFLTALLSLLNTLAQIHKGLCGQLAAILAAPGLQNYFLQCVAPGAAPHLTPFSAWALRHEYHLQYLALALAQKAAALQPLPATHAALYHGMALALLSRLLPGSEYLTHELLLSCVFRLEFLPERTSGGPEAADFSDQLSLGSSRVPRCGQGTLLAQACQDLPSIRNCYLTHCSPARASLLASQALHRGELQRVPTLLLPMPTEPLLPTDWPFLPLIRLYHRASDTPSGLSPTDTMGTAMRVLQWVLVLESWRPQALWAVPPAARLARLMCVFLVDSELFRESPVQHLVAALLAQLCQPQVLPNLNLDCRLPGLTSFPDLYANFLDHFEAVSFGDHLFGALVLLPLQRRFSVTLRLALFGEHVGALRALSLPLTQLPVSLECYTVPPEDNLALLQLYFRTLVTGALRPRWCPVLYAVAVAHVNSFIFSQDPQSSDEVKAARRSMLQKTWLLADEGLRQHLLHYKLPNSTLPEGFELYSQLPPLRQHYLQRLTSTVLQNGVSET
UniProt Q8NC42: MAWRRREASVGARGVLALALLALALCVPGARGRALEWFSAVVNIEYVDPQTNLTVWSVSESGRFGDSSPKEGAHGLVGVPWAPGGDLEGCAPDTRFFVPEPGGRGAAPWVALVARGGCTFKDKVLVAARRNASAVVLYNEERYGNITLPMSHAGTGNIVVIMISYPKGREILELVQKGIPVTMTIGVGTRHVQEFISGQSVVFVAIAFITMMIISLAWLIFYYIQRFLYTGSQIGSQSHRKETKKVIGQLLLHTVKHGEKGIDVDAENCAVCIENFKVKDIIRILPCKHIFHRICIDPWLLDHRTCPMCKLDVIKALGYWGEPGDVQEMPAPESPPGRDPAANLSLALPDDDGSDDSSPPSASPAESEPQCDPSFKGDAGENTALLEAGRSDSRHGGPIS

How the values were obtained:
Assay in all cases: log2 fold change, soluble protein after heating vs DMSO (PISA); higher = thermal stabilisation; K562 lysate, 10 uM; active = over 0.2 and 3.5 SD of the protein, either way, in both replicates (recomputed)
ibrutinib = compound: C=CC(=O)N1CCC[C@@H](n2nc(-c3ccc(Oc4ccccc4)cc3)c3c(N)ncnc32)C1 [ibrutinib]
Summary of the method: (§1)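 Values give the log-two fold change in thermal stability against solvent controls, from duplicates. Crude K562 extract at 1 mg/mL protein, made by dounce homogenisation in PBS pH 7.4 with 1 mM MgCl2, was treated with 10 μM compound for 30 min. After 3 min heating across 48°C-58°C, aliquots were pooled, adjusted to 0.5% NP-40 at 4°C and centrifuged at 21,000xg for 90 min. The supernatant was measured by TMTpro 16plex LC-MS/MS with channel sums equalised.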

[1] = compound: CC(=O)c1cnc2ccc(-c3cc(Cl)c(O)c(Cl)c3)nc2c1N[C@H]1CC[C@H](CN(C)C)CC1
Summary of the method: as §1

ralimetinib = compound: CC(C)(C)Cn1c(N)nc2ccc(-c3[nH]c(C(C)(C)C)nc3-c3ccc(F)cc3)nc21 [ralimetinib]
Summary of the method: as §1

[2] = compound: CC(C)(O)CC(=O)NCCn1ccc2ncnc(Nc3ccc(Oc4cccc(C(F)(F)F)c4)c(Cl)c3)c21
Summary of the method: as §1

[3] = compound: CC(C)C1=C2N=C(C=C(N2N=C1)NCC3=CC=CC=C3)NCCCCCCN
Summary of the method: as §1

[4] = compound: CC1=C(C(CC(=O)N1)C2=CC=C(C=C2)C(F)(F)F)C(=O)NC3=C(C=C4C(=C3)C=NN4)F
Summary of the method: as §1

[5] = compound: CC1=C(C2=C(C=C1)C(=O)C3=CC=CC=C3N2CCCN)C
Summary of the method: as §1

[6] = compound: CC1=C(C=C(C=C1)NC(=O)C2=CC(=CC=C2)C(C)(C)C#N)NC3=CC4=C(C=C3)N=CN(C4=O)C
Summary of the method: as §1

[7] = compound: CC1=C(C=C(C=C1)NC(=O)C2=CC(=CC=C2)N(C)C)NC(=O)C3=CC=C(C=C3)O
Summary of the method: as §1

[8] = compound: CC1=CC=C(C=C1)SC2=C3C=C(SC3=CN=C2)C(=O)N
Summary of the method: as §1

Measured: log2 fold change

RNF166 (UniProt Q96A37)
inactive: ibrutinib -0.013 | [1] 0.063 | ralimetinib -0.028 | [2] 0.033 | [3] -0.02 | [4] 0.062 | [5] -0.163 | [6] 0.137 | [7] 0.043 | [8] -0.067

RIPK1 (UniProt Q13546)
inactive: ibrutinib -0.02 | [1] -0.025 | ralimetinib -0.009 | [2] -0.011 | [3] 0.018 | [4] 0.001 | [5] -0.013 | [6] 0.001 | [7] -0.02 | [8] 0.003

RNPS1 (UniProt Q15287)
inactive: ibrutinib 0.04 | [1] 0.042 | ralimetinib 0.007 | [2] 0.006 | [3] 0.005 | [4] 0.138 | [5] 0.003 | [6] -0.057 | [7] -0.032 | [8] -0.032

RPL22 (UniProt P35268)
inactive: ibrutinib -0.039 | [1] -0.002 | ralimetinib -0.044 | [2] -0.039 | [3] 0.022 | [4] -0.034 | [5] -0.034 | [6] -0.009 | [7] 0.001 | [8] 0.041

ROGDI (UniProt Q9GZN7)
inactive: ibrutinib 0.116 | [1] 0.308 | ralimetinib 0.142 | [2] -0.15 | [3] -0.025 | [4] 0 | [5] -0.032 | [6] -0.024 | [7] 0.074 | [8] -0.011

RPL14 (UniProt P50914)
inactive: ibrutinib 0.011 | [1] 0.008 | ralimetinib 0.034 | [2] 0.002 | [3] -0.009 | [4] -0.008 | [5] 0 | [6] -0.061 | [7] 0.003 | [8] 0.054

RNF146 (UniProt Q9NTX7)
inactive: ibrutinib 0.045 | [1] 0.05 | ralimetinib -0.025 | [2] -0.048 | [3] -0.072 | [4] -0.07 | [5] 0.04 | [6] -0.006 | [7] -0.03 | [8] -0.047

RNF168 (UniProt Q8IYW5)
inactive: ibrutinib 0.155 | [1] 0.144 | ralimetinib 0.004 | [2] -0.041 | [3] -0.034 | [4] -0.071 | [5] 0.031 | [6] 0.026 | [7] -0.04 | [8] 0.011

RPL11 (UniProt P62913)
inactive: ibrutinib -0.085 | [1] -0.017 | ralimetinib -0.037 | [2] -0.045 | [3] 0 | [4] -0.027 | [5] 0 | [6] 0.015 | [7] 0.033 | [8] -0.014

Copied from the entries so far (3 entries):
RPL14 (UniProt P50914)
inactive: ibrutinib 0.011 | [1] 0.008 | ralimetinib 0.034 | [2] 0.002 | [3] -0.009 | [4] -0.008 | [5] 0 | [6] -0.061 | [7] 0.003 | [8] 0.054

RNF146 (UniProt Q9NTX7)
inactive: ibrutinib 0.045 | [1] 0.05 | ralimetinib -0.025 | [2] -0.048 | [3] -0.072 | [4] -0.07 | [5] 0.04 | [6] -0.006 | [7] -0.03 | [8] -0.047

RNF168 (UniProt Q8IYW5)
inactive: ibrutinib 0.155 | [1] 0.144 | ralimetinib 0.004 | [2] -0.041 | [3] -0.034 | [4] -0.071 | [5] 0.031 | [6] 0.026 | [7] -0.04 | [8] 0.011

(next part)

RNASEH2A (UniProt O75792)
inactive: ibrutinib 0.021 | [1] 0.031 | ralimetinib -0.017 | [2] -0.002 | [3] 0.012 | [4] 0.026 | [5] 0.031 | [6] 0.015 | [7] -0.032 | [8] 0.015

RPL18 (UniProt Q07020)
inactive: ibrutinib -0.016 | [1] -0.017 | ralimetinib -0.044 | [2] -0.002 | [3] 0.011 | [4] -0.036 | [5] -0.006 | [6] -0.014 | [7] 0.03 | [8] 0.016

RPAP1 (UniProt Q9BWH6)
inactive: ibrutinib -0.016 | [1] 0.049 | ralimetinib 0.02 | [2] -0.015 | [3] -0.037 | [4] 0.011 | [5] -0.002 | [6] -0.013 | [7] 0.007 | [8] -0.033

RNF149 (UniProt Q8NC42)
inactive: ibrutinib 0.04 | [1] 0.023 | ralimetinib 0.044 | [2] -0.041 | [3] -0.005 | [4] -0.021 | [5] 0.001 | [6] -0.014 | [7] 0.113 | [8] 0.06

RPL15 (UniProt P61313)
inactive: ibrutinib 0.003 | [1] -0.006 | ralimetinib 0.038 | [2] 0.008 | [3] -0.007 | [4] -0.014 | [5] 0.014 | [6] -0.002 | [7] -0.005 | [8] 0

RPL32 (UniProt P62910)
inactive: ibrutinib -0.008 | [1] 0 | ralimetinib 0.008 | [2] -0.005 | [3] 0.024 | [4] 0.001 | [5] 0.007 | [6] -0.034 | [7] -0.011 | [8] 0.058
